The target in this experiment is mutated human c-MET antigen with murine membrane-distal epitopes (extracellular domains fused to a truncated variant of human EpCAM) (human/murine chimera). Kind of experiment: FACS, CHO transfectants, periplasmic preparation. For orientation: Flow cytometry measures light scatter and fluorescence of single cells or particles in a stream.

These are yes or no findings as the source states them, for the method shown. Some binding calls cover weakened binding; strength is not graded here.

B1: ME99B1HL (scFv)
scFv: EVQLLEQSGAELVRPGTSVKISCKATGYTFSNYWISWVKYRPGHGLEWIGDIYPGGSYTNYNEKFKGKVTLTADTSSRTAYMQLSGLTFEDSAIYYCARSGYDYGSDYDYHGMDYWGQGTTVTVSSGGGGSGGGGSGGGGSELQMTQSPASLSASVGETVTITCRASENIYSNLAWYQQKQGKSPQLLVYAATNLADGVPSRFSGSRSGSDYSLTISSLESEDFVDYYCLQYASYPYTFGGGTKLEIKTGDYKDDDDKHHHHHH
notes: murine anti-c-MET scFv; E. coli periplasmic preparation
For B1, the binding result is reported as “binds”.
